# Some of the results follow.
# Chains of the proteins cited; added tags and fusions are not shown.
# UniProt Q0JBA9, entry or part of it: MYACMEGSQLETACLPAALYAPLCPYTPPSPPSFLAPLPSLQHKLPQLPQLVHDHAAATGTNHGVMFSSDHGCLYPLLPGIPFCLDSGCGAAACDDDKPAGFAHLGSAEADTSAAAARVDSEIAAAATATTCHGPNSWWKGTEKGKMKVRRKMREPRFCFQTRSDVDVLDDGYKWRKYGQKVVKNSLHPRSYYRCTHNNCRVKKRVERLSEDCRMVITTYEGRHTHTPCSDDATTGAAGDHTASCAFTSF
# Molecular target: OsWRKY34 (Oryza sativa, UniProt Q0JBA9 1-250)
# Experiment: protein-binding microarray (RPBM); PBS, 2% BSA, 51.3 ng/ul salmon testes DNA, 50 uM zinc acetate, 200 nM TF, 25 C, 1 h; high values mean tight binding
# Conditions: protein: recombinant; tags: N-terminal polyhistidine and DsRed monomer fusion (pET32a); label: CyDye5-dUTP incorporated in the synthesized complementary strand; 3' TTTTT single-stranded linker to array surface; dsDNA, one strand shown
# Summary of the method: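 Ni–NTA purification followed expression in E. coli BL21-CodonPlus of transcription factors fused N-terminally to a polyhistidine tag and DsRed. At 200 nM in PBS with 2% BSA, salmon testes DNA and 50 µM zinc acetate, the protein was incubated for 1 h at 25 °C with a custom Agilent array that had been primer-extended with Cy5-dUTP and blocked with 2% BSA. After washing, the array was read on an Axon 4000B scanner. The binding signal is per-feature fluorescence intensity in arbitrary units.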
row,Sequence,binding signal
1,ATCGATCTAGCTCTTAATTAGCTCTGCATGAGTTTCGCGCCGGAGTCACCTAGTGCAG,8490 fluorescence intensity (a.u.)
2,TTCTTCCCTCATCTCTTTGGGTTTTGTCTTATATGGCTGACGGAGTCACCTAGTGCAG,8740 fluorescence intensity (a.u.)
3,GAACACCAACGACACGGTTCACAGGCAACCAACTTTGACCCGGAGTCACCTAGTGCAG,9140 fluorescence intensity (a.u.)
4,CCTGCGCCGGAGTCGCCGATGGCCACCTTCTCACGGCTTACGGAGTCACCTAGTGCAG,9180 fluorescence intensity (a.u.)
5,GGTTTATTTGCTACGATCTGAACAGACCTTATTTTTTGGCCGGAGTCACCTAGTGCAG,8650 fluorescence intensity (a.u.)
6,TGTCTTTATTTTCCAGCGTTTACCTAGTAGTGCTGTCAAACGGAGTCACCTAGTGCAG,8200 fluorescence intensity (a.u.)
7,CAATGACCTTTTTTTTTCCTCTCTCTGTTGCTTCCGATATCGGAGTCACCTAGTGCAG,8500 fluorescence intensity (a.u.)
8,GTTCGTCATCAGATGGCGATGGGTTCAGTGATGGCGTTGACGGAGTCACCTAGTGCAG,8600 fluorescence intensity (a.u.)
9,CATCTGCACTTGATTTCTTATTCACGCAACTCCATTAAAGCGGAGTCACCTAGTGCAG,9760 fluorescence intensity (a.u.)
10,GGACGCTTTTCGCCTTGTTGGTGCACTGTCCCCTTCGTCTCGGAGTCACCTAGTGCAG,8060 fluorescence intensity (a.u.)
11,CTATCATAATATTTGACCTAGACATTTTTTTTTCCTTCAACGGAGTCACCTAGTGCAG,8390 fluorescence intensity (a.u.)
12,AAATATGTACTGCTGGTGGTTCTGTGTTTCCTCTGTTTGACGGAGTCACCTAGTGCAG,11800 fluorescence intensity (a.u.)
13,ACTTACTGTACCTGCATAAATACATAAACACATACCATATCGGAGTCACCTAGTGCAG,8750 fluorescence intensity (a.u.)
14,AGTGTGTGCGTGGTATGAGCGCTTGTGTTTTTTTACCTTTCGGAGTCACCTAGTGCAG,8800 fluorescence intensity (a.u.)
15,TCTGCGCGGACTGGACCACCATGCTAGTTTACTCTATTTTCGGAGTCACCTAGTGCAG,8080 fluorescence intensity (a.u.)
16,CTTGGCTTGGTTTGGTTTGGTGTTTGATCACGCGGTGGTGCGGAGTCACCTAGTGCAG,20800 fluorescence intensity (a.u.)
17,ATCTTCTTCTTCATCGCTGTGCAGCTACACACTCTCACTGCGGAGTCACCTAGTGCAG,10000 fluorescence intensity (a.u.)
18,GCCGCCCGCCGCCCCTGCCTGCCCAATCCGCCTGTCTCTCCGGAGTCACCTAGTGCAG,8270 fluorescence intensity (a.u.)
19,TCCCCGTCTTTTCCTTCCGCCTCACCAACCTCGTCTCGTCCGGAGTCACCTAGTGCAG,9830 fluorescence intensity (a.u.)
20,GGTGATGAACTCTTGCCTCTTTGACCAGCCTTGATTTTCCCGGAGTCACCTAGTGCAG,9270 fluorescence intensity (a.u.)
21,CTTCTCTCTCCCTTTTATAATAGTTGTTTTGATTTTTTTACGGAGTCACCTAGTGCAG,8840 fluorescence intensity (a.u.)
22,TGGTGTTATATATTTTTTTTAAAAAAGTCAACATGTATTTCGGAGTCACCTAGTGCAG,8880 fluorescence intensity (a.u.)
23,GACCCGAACTTCTTCCCATTGTGGAATTTGCAATCTTTTTCGGAGTCACCTAGTGCAG,8900 fluorescence intensity (a.u.)

# Reformatted: results already given.
row	Sequence	binding signal
2	TTCTTCCCTCATCTCTTTGGGTTTTGTCTTATATGGCTGACGGAGTCACCTAGTGCAG	8740 fluorescence intensity (a.u.)
20	GGTGATGAACTCTTGCCTCTTTGACCAGCCTTGATTTTCCCGGAGTCACCTAGTGCAG	9270 fluorescence intensity (a.u.)
